Source: PubChem BioAssay AID1224828 (NIAID, 2016)
Shown is one part, drawn at random, of about 17,000 reagents. 762 of them (4.5%) count as active. 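Active calls include both raised and lowered p65 entry, mostly lowered; wells with fewer than 50 cells lack a z-score.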 Raw values are not corrected between plates. A number with no mark means an inactive call. No sequences are given here.

Assay: 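Knock-downs that increase or decrease LPS-induced p65 nuclear translocation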 (primary screen)
System: mouse RAW264.7 G9 macrophage reporter cells (GFP-p65, Tnf promoter-mCherry)
Reagents: siRNA pool against mouse genes, 100 nM
Time to read-out: 2 days siRNA transfection, then 40 min LPS before fixation
Treatment: LPS (Salmonella minnesota R595) at 10 ng/ml
Measurement: 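Imaged p65 nuclear translocation ratio, normalised to the plate median, converted to robust z-scores and averaged across two replicates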
Reading the numbers: p65 translocation robust z-score: higher = more nuclear NF-kappaB p65 after LPS than the plate median; nuclear/cytoplasmic p65 ratio: higher = more nuclear NF-kappaB p65
Rule for the call: 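Active if robust z is above 3.3 (negative regulators) or below -1.56, the Tlr4 control median (positive regulators); activity score 50 or more; control wells not called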
Calls: active = hit (p65 shift raised or lowered); inactive = no clear change

| Target gene | p65 translocation robust z-score | nuclear/cytoplasmic p65 ratio, rep 1 | nuclear/cytoplasmic p65 ratio, rep 2 | low cell count flag |
| --- | --- | --- | --- | --- |
| Dkk3 | – | 1.55 | 1.67 | fewer than 50 cells per well; well left out of scoring |
| Lpcat1 | -0.9 | 1.46 | 1.5 | enough cells to score |
| Flnb | -0.36 | 1.33 | 1.38 | enough cells to score |
| Aspscr1 | 0.71 | 1.74 | 1.7 | enough cells to score |
| Dusp5 | 1.03 | 1.84 | 1.52 | enough cells to score |
| Lnx2 | -0.31 | 1.69 | 1.48 | enough cells to score |
| Cdh4 | -0.23 | 1.63 | 1.67 | enough cells to score |
| Mpg | 0.3 | 1.5 | 1.37 | enough cells to score |
| Bcorl1 | 0.54 | 1.67 | 1.91 | enough cells to score |
| Mphosph6 | 0.32 | 1.42 | 1.44 | enough cells to score |
| U2af2 | – | 1.44 | 1.06 | fewer than 50 cells per well; well left out of scoring |
| Tmem60 | 0.59 | 1.71 | 1.89 | enough cells to score |
| Gna14 | 0.07 | 1.49 | 1.62 | enough cells to score |
| Rragd | 0.52 | 1.6 | 1.43 | enough cells to score |
| Bpifa2 | 0.04 | 1.38 | 1.17 | enough cells to score |
| Tgm2 | 1.82 | 1.71 | 1.84 | enough cells to score |
| Vmn1r74 | – | 1.46 | 1.19 | fewer than 50 cells per well; well left out of scoring |
| Zfp105 | 0.21 | 1.56 | 1.52 | enough cells to score |
| Scx | – | 1.65 | 1.36 | fewer than 50 cells per well; well left out of scoring |
| Bdkrb1 | – | 1.4 | 1.57 | fewer than 50 cells per well; well left out of scoring |
| Kir3dl2 | -0.35 | 1.46 | 1.31 | enough cells to score |
| Efnb3 | – | 1.5 | 1.21 | fewer than 50 cells per well; well left out of scoring |
| Gla | -0.96 | 1.41 | 1.15 | enough cells to score |
| Tsr2 | 0.43 | 1.41 | 1.31 | enough cells to score |
| Foxred1 | -0.62 | 1.42 | 1.74 | enough cells to score |
| Vmn1r47 | – | 1.48 | 1.35 | fewer than 50 cells per well; well left out of scoring |
| Ercc5 | -0.2 | 1.41 | 1.37 | enough cells to score |
| Atf4 | -0.87 | 1.48 | 1.49 | enough cells to score |
| Pecr | 0.33 | 1.43 | 1.52 | enough cells to score |
| Skint3 | -0.78 | 1.34 | 1.42 | enough cells to score |
| Vmn1r80 | -0.39 | 1.34 | 1.15 | enough cells to score |
| Cd160 | -1.04 | 2.03 | 1.25 | enough cells to score |
| Gba2 | -0.9 | 1.42 | 1.38 | enough cells to score |
| Aurkaip1 | 0.67 | 1.6 | 1.82 | enough cells to score |
| Trafd1 | – | 1.29 | 1.68 | fewer than 50 cells per well; well left out of scoring |
| Myh9 | -1.14 | 1.32 | 1.17 | enough cells to score |
| Dhfr | -0.27 | 1.54 | 1.26 | enough cells to score |
| Psen1 | -0.6 | 1.4 | 1.34 | enough cells to score |
| Camk2a | -1.07 | 1.47 | 1.29 | enough cells to score |
| Saa2 | -0.61 | 1.46 | 1.47 | enough cells to score |

Sorted by “nuclear/cytoplasmic p65 ratio, rep 2” (lowest first): some entries from above.
| Target gene | p65 translocation robust z-score | nuclear/cytoplasmic p65 ratio, rep 1 | nuclear/cytoplasmic p65 ratio, rep 2 | low cell count flag |
| --- | --- | --- | --- | --- |
| Mpg | 0.3 | 1.5 | 1.37 | enough cells to score |
| Lnx2 | -0.31 | 1.69 | 1.48 | enough cells to score |
| Cdh4 | -0.23 | 1.63 | 1.67 | enough cells to score |
